Assay results published in article PMC3554717.

The chains behind the UniProt entries cited, without tags or fusion partners. Where a name states a change or a piece, a line headed by the entry shows the natural chain unless it says otherwise.
UniProt Q9Y2R2: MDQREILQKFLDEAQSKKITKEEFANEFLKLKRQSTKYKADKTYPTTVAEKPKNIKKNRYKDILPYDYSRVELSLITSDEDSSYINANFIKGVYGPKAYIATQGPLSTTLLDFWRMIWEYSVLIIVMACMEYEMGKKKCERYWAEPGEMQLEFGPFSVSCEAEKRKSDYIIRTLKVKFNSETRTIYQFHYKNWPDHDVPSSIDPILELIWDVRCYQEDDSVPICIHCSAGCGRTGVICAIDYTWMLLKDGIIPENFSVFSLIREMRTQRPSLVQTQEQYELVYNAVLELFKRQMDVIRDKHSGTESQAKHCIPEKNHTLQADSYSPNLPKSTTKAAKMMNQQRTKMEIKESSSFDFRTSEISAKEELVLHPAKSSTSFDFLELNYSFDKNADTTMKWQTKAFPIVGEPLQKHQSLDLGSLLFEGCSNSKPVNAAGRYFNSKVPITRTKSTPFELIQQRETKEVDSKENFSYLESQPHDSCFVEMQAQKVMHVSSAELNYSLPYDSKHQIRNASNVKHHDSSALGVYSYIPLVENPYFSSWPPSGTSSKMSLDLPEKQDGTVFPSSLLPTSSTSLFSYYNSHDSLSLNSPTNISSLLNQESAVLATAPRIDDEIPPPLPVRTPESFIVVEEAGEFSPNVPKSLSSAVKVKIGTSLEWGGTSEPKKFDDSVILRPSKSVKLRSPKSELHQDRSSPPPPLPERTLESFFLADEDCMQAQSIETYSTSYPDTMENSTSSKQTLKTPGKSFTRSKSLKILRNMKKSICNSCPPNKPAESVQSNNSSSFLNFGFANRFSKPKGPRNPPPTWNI
UniProt P41240: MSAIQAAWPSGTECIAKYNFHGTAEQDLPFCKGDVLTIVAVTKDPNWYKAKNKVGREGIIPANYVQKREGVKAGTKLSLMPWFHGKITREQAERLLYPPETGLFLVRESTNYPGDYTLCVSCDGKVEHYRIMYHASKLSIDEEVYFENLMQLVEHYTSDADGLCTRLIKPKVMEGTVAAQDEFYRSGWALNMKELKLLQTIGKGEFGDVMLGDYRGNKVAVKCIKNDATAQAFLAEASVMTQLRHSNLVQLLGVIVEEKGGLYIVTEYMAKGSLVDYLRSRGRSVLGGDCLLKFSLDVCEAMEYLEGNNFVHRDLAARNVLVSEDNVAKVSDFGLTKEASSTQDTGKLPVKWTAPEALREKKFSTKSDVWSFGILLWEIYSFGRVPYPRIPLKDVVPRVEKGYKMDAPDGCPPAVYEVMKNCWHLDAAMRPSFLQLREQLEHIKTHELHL

Columns and labels:
Assay in all cases: co-IP; HEK293 cells transiently transfected with myc-LYP and HA-CSK, untreated or treated with pervanadate (PV) for 5 min; lysis in 20 mM Tris/HCl pH 7.4, 150 mM NaCl, 5 mM EDTA, 1% NP-40; IP of LYP, IB for HA-CSK
[1] = target: LYP-ΔCTH, deletion mutant of LYP tagged with the myc epitope that lacks the CTH PRM (human) (UniProt Q9Y2R2)
[2] = target: myc-LYP P615A/P618A/P695 (human) (UniProt Q9Y2R2)
[3] = target: myc-LYP Y526F (human) (UniProt Q9Y2R2)
[4] = target: myc-LYP Y536F (human) (UniProt Q9Y2R2)
[5] = target: myc-LYP point mutant of Arg700 (P2 motif) (human) (UniProt Q9Y2R2)
[6] = target: myc-LYP point mutant of Pro615 (P1 motif) (human) (UniProt Q9Y2R2)
[7] = target: myc-LYP point mutant of Pro695 (P2 motif) (human) (UniProt Q9Y2R2)

## HA-CSK (from UniProt P41240 1-450) (enzyme)
[1]
  binding: binds
[2]
  binding: no binding
[3]
  binding: binds
[4]
  binding: binds
[5]
  binding: binds
[6]
  binding: binds
[7]
  binding: binds

Results are given in words; binding and its absence hold for the method and conditions named. Binding seen in cells or lysates may run through a third protein. For some of these results: Binding calls can cover weak binding; strength is not graded here.
